PubChem BioAssay AID1259308, NCATS | 2017

Screen: 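Candidate targets for better recombinant protein yield in mammalian cells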 (primary screen)
Cell system: human HEK293 embryonic kidney cells stably expressing firefly luciferase (HEK-CMV-Luc2-Hygro)
Reagents: single siRNA against human genes, 0.8 pmol siRNA per well
Duration: 72 h
Read-out: 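Reporter luminescence and viable-cell signal on separate replicate plates, given as percent of non-targeting control and median/MAD z-scores, plus per-cell luciferase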
Direction: total luciferase, z-score: higher = more reporter protein produced
Call rule: 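Active when the median/MAD z-score for overall luciferase is greater than 3; a gene was taken forward for validation with new siRNAs if at least two of its three siRNAs passed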
Calls: active = raised luciferase; inactive = no rise
Here is a random part of about 59,000 reagents tested. Of all reagents, about 1,510 (2.6%) got an active call. 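Calls use total luciferase alone and ignore viability, so some active siRNAs may act by altering cell number.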 Reagents against one gene are numbered here. Not all columns of the deposit are shown. Reagent sequences are not shown.

| target | reagent no. | total luciferase, z-score | outcome |
| --- | --- | --- | --- |
| PIKFYVE | 1 | 0.0218 | inactive |
| PIKFYVE | 2 | 1.32 | inactive |
| PIKFYVE | 3 | 1.73 | inactive |
| METTL18 | 1 | -0.93 | inactive |
| METTL18 | 2 | 0.838 | inactive |
| METTL18 | 3 | 3.5 | active |
| RAB23 | 1 | -0.247 | inactive |
| RAB23 | 2 | -1.2 | inactive |
| RAB23 | 3 | 0.908 | inactive |
| RAB19 | 1 | -0.28 | inactive |
| RAB19 | 2 | -0.313 | inactive |
| RAB19 | 3 | -1.36 | inactive |
| CR1L | 1 | 2.76 | inactive |
| CR1L | 2 | 0.439 | inactive |
| CR1L | 3 | 0.243 | inactive |
| SMOC1 | 1 | -0.101 | inactive |
| SMOC1 | 2 | -0.403 | inactive |
| SMOC1 | 3 | 0.258 | inactive |
| GATD1 | 1 | 1.58 | inactive |
| GATD1 | 2 | 1.35 | inactive |
| GATD1 | 3 | -1.17 | inactive |
| TTC33 | 1 | 1.72 | inactive |
| TTC33 | 2 | -0.559 | inactive |
| TTC33 | 3 | -0.0952 | inactive |
| ANO5 | 1 | 0.0795 | inactive |
| ANO5 | 2 | -0.145 | inactive |
| ANO5 | 3 | 0.709 | inactive |
| SLC6A4 | 1 | 0.786 | inactive |
| SLC6A4 | 2 | 0.425 | inactive |
| SLC6A4 | 3 | -1.48 | inactive |
| IL17RB | 1 | -0.0112 | inactive |
| IL17RB | 2 | -0.292 | inactive |
| IL17RB | 3 | 0.858 | inactive |
| ATP6V1D | 1 | 1.26 | inactive |
| ATP6V1D | 2 | -0.454 | inactive |
| ATP6V1D | 3 | 1.33 | inactive |
| RUNDC1 | 1 | -0.794 | inactive |
| RUNDC1 | 2 | -0.76 | inactive |
| RUNDC1 | 3 | -0.882 | inactive |
| KEAP1 | 1 | 0.0855 | inactive |
| KEAP1 | 2 | 0.784 | inactive |
| KEAP1 | 3 | 2.62 | inactive |
| COL18A1 | 1 | -0.0478 | inactive |
| COL18A1 | 2 | -1.13 | inactive |
| COL18A1 | 3 | -0.274 | inactive |
| SETD3 | 1 | 0.68 | inactive |
| SETD3 | 2 | -0.615 | inactive |
| SETD3 | 3 | -0.716 | inactive |
| SETD3 | 4 | -0.0414 | inactive |
| SETD3 | 5 | -0.148 | inactive |
| SETD3 | 6 | 0.555 | inactive |
| FAM47C | 1 | -0.472 | inactive |
| FAM47C | 2 | -0.494 | inactive |
| FAM47C | 3 | 1.79 | inactive |
| ADCY2 | 1 | 0.265 | inactive |
| ADCY2 | 2 | -0.0919 | inactive |
| ADCY2 | 3 | -1.07 | inactive |
| KRTAP12-2 | 1 | 2.91 | inactive |
| KRTAP12-2 | 2 | 0.69 | inactive |
| KRTAP12-2 | 3 | -0.191 | inactive |
| STARD4 | 1 | -1.43 | inactive |
| STARD4 | 2 | -1.17 | inactive |
| STARD4 | 3 | -0.29 | inactive |
| CIMIP4 | 1 | -0.946 | inactive |
| CIMIP4 | 2 | 0.0458 | inactive |
| CIMIP4 | 3 | 1.69 | inactive |
| TMCO4 | 1 | 1.43 | inactive |
| TMCO4 | 2 | -0.0576 | inactive |
| TMCO4 | 3 | -1.18 | inactive |
| LINC01148 | 1 | -0.212 | inactive |
| LINC01148 | 2 | -1.45 | inactive |
| LINC01148 | 3 | -0.845 | inactive |
| CHRM4 | 1 | 1.99 | inactive |
| CHRM4 | 2 | 1.48 | inactive |
| CHRM4 | 3 | -0.304 | inactive |

An excerpt taken from the entries so far, for reference:
| target | reagent no. | total luciferase, z-score | outcome |
| --- | --- | --- | --- |
| STARD4 | 3 | -0.29 | inactive |
| CIMIP4 | 1 | -0.946 | inactive |
| CIMIP4 | 2 | 0.0458 | inactive |
| CIMIP4 | 3 | 1.69 | inactive |
